{"source": "paper PMC6723352", "about": "“Exploring Structure-Activity Relationship in Tacrine-Squaramide Derivatives as Potent Cholinesterase Inhibitors” (Biomolecules, 2019)", "conditions": "pig, PAMPA, pH 7.4", "description": "An important feature for drugs targeting the brain is their ability to cross the BBB. The parallel artificial membrane permeability assay (PAMPA) is a high-throughput screening tool applicable for prediction of passive transport across BBB [57]. […] These include mainly (i) the different composition of the human phospholipid bilayer may cause deviation in predicted permeability, (ii) omitting the absorption of compounds that are actively transported by influx transporters and pumped-out by various efflux mechanisms with the glycoprotein P at the forefront or (iii) transport through the paracellular route which is mostly exploited by small hydrophobic molecules. […]\nPAMPA (the parallel artificial membrane permeability assay) is a high-throughput screening tool applicable for prediction of the passive transport of potential drugs across the blood-brain barrier (BBB). […] The concentration of the tested compound in both donor and the acceptor wells were assessed after 3, 4, 5 and 6 h of incubation in quadruplicate using the UV plate reader Synergy HT (Biotek, USA) at the maximum absorption wavelength of each compound (n = 3). Besides that, the solution of theoretical compound concentration, simulating the equilibrium state, established if the membrane was ideally permeable was prepared and assessed as well."}
{"smiles": "COc1cc2c(cc1OC)C(=O)C(CC1CCN(Cc3ccccc3)CC1)C2", "note": "(stereo not shown) [Donepezil, donepezil, reference compound]", "values": [{"measurement": "Pe", "value": "2.1e-05", "unit": "cm/s"}]}
